From PMC9947146 come the findings set out here.

Test [1] concerns the target T1, HSPA14 (human (endogenous in CEM cells and patients' CD4+T cells)) (UniProt Q0VDF9).
T1 sequence: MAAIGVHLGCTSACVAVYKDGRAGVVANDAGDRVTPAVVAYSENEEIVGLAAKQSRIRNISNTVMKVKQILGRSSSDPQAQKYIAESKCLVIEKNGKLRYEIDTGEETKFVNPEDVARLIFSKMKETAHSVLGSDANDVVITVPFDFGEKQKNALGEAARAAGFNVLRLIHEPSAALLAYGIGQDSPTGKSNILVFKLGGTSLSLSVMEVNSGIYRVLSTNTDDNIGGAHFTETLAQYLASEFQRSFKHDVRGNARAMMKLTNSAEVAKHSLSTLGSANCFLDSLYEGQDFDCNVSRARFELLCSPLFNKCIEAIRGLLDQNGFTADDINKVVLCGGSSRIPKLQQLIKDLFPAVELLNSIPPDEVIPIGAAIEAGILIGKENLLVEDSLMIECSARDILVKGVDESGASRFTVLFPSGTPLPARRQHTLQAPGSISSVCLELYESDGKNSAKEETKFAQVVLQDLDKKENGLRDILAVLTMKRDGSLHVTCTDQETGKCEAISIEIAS
The test is described as follows: co-IP; endogenous proteins; total proteins (RIPA lysis buffer) of CEM cells infected with HIV pseudovirus and of CD4+T cells of acute HIV infected patients incubated with HSPA14 or HspBP1 antibodies, Classic Magnetic IP/Co-IP Kit, immunoblot.

The target of test [2] is T2, HspBP1 (human (endogenous in CEM cells and patients' CD4+T cells)) (UniProt Q9NZL4).
T2 sequence: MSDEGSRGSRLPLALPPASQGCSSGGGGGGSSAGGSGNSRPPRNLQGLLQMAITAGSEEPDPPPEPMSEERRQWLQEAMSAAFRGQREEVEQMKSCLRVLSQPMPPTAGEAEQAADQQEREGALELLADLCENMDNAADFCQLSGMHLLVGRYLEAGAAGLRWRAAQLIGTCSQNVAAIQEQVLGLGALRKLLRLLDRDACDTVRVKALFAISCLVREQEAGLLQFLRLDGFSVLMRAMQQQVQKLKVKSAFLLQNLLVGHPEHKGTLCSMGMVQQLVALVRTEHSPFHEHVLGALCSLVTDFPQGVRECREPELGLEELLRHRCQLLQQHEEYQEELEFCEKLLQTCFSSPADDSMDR
The description is as above.

No constants are given. Whether binding was seen depends on the method and setting. In cells and extracts the contact can be indirect. Some entries that bind do so weakly or less than the wild type.

B1: HspBP1 (protein, UniProt Q9NZL4 1-359)
chain: MSDEGSRGSRLPLALPPASQGCSSGGGGGGSSAGGSGNSRPPRNLQGLLQMAITAGSEEPDPPPEPMSEERRQWLQEAMSAAFRGQREEVEQMKSCLRVLSQPMPPTAGEAEQAADQQEREGALELLADLCENMDNAADFCQLSGMHLLVGRYLEAGAAGLRWRAAQLIGTCSQNVAAIQEQVLGLGALRKLLRLLDRDACDTVRVKALFAISCLVREQEAGLLQFLRLDGFSVLMRAMQQQVQKLKVKSAFLLQNLLVGHPEHKGTLCSMGMVQQLVALVRTEHSPFHEHVLGALCSLVTDFPQGVRECREPELGLEELLRHRCQLLQQHEEYQEELEFCEKLLQTCFSSPADDSMDR
For B1, the binding entry in test [1] is reported as “binds”.

B2: HSPA14 (protein, UniProt Q0VDF9 1-509)
chain: MAAIGVHLGCTSACVAVYKDGRAGVVANDAGDRVTPAVVAYSENEEIVGLAAKQSRIRNISNTVMKVKQILGRSSSDPQAQKYIAESKCLVIEKNGKLRYEIDTGEETKFVNPEDVARLIFSKMKETAHSVLGSDANDVVITVPFDFGEKQKNALGEAARAAGFNVLRLIHEPSAALLAYGIGQDSPTGKSNILVFKLGGTSLSLSVMEVNSGIYRVLSTNTDDNIGGAHFTETLAQYLASEFQRSFKHDVRGNARAMMKLTNSAEVAKHSLSTLGSANCFLDSLYEGQDFDCNVSRARFELLCSPLFNKCIEAIRGLLDQNGFTADDINKVVLCGGSSRIPKLQQLIKDLFPAVELLNSIPPDEVIPIGAAIEAGILIGKENLLVEDSLMIECSARDILVKGVDESGASRFTVLFPSGTPLPARRQHTLQAPGSISSVCLELYESDGKNSAKEETKFAQVVLQDLDKKENGLRDILAVLTMKRDGSLHVTCTDQETGKCEAISIEIAS
With B2, the binding result in test [2] is on record as “binds”.
